Test results reported in article PMC6707942.
Results are given in words; binding and its absence hold for the method and conditions named. In cells and extracts the contact can be indirect. Where a sequence is shown, tags or fusion partners need not be part of it.

Chains of the proteins cited; added tags and fusions are not shown.
UniProt Q03135: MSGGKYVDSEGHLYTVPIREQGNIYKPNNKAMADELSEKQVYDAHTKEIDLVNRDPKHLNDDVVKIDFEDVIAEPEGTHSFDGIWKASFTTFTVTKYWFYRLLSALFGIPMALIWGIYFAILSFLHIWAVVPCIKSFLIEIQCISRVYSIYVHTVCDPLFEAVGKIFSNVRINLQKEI

Target: caveolin-1 (human (endogenous in DU-145)) (UniProt Q03135)
Experiment: proximity ligation; DU-145 cells treated with His-MDA-7/IL-24 for 30 min, fixed; Duolink PLA kit; primary antibodies (anti-MDA-7/IL-24 and anti-clathrin or anti-caveolae) overnight at 4 °C; signals seen by fluorescence microscope; only the binder purified

B1: His-tagged recombinant MDA-7/IL-24 (ligand, UniProt Q13007 52-206)
chain: QEFHFGPCQVKGVVPQKLWEAFWAVKDTMQAQDNITSARLLQQEVLQNVSDAESCYLVHTLLEFYLKTVFKNYHNRTVEVRTLKSFSTLANNFVLIVSQLQPSQENEMFSIRDSAHRRFLLFRRAFKQLDVEAALTKALGEVDILLTWMQKFYKL
- binding: no binding
